Assay results as given in publication PMC2736567.
Results are given in words; binding and its absence hold for the method and conditions named. Binding seen in cells or lysates may run through a third protein.

Protein sequences, listed by entry. Tags and fused reporters are not part of them.
UniProt Q997F1: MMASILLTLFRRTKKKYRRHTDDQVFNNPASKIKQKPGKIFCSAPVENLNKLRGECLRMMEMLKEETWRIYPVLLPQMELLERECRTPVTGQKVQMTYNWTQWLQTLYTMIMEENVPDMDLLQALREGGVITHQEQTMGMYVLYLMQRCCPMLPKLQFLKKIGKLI
UniProt P62993: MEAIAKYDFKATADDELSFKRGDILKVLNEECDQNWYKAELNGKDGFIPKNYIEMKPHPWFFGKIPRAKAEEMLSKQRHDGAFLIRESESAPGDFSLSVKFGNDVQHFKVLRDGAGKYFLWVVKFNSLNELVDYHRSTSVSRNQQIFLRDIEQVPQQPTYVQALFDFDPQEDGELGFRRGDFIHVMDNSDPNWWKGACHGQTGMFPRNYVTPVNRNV
UniProt P42224: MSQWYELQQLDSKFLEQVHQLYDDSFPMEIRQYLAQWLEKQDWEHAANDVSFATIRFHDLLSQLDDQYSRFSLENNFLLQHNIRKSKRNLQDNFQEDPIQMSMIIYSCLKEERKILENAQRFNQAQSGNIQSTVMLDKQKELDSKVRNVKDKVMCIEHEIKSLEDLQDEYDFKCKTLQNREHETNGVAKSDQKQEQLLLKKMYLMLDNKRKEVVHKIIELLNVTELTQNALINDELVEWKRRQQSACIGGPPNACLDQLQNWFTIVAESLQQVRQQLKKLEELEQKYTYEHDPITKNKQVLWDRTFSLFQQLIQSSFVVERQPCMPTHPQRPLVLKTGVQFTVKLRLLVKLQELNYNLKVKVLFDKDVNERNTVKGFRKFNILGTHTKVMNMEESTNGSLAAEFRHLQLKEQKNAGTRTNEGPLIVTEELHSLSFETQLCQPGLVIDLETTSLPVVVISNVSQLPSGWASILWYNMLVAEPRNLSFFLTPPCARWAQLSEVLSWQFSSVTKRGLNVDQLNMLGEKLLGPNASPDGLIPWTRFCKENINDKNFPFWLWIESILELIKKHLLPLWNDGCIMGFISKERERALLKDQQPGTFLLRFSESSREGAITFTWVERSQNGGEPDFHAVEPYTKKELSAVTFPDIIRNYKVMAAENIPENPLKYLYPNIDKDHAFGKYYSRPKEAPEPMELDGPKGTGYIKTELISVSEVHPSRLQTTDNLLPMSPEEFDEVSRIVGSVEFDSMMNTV

Biological target: GST-tagged C protein of Nipah virus (Nipah-C) (Nipah virus) (UniProt Q997F1)
Assay: pull-down

Substance | binding
endogenous GRB2 (from UniProt P62993 1-217) | no binding
endogenous STAT1 (from UniProt P42224 1-750) | no binding
